This is an account of results in US7414106 (dated 2008).

The nature of the data set: general procedure: Fmoc solid-phase peptide synthesis; 4-Fmoc-hydrazinobenzoyl AM resin (Novabiochem). The conditions noted are these: whole synthesis.

In the case of H-LYKAA-SEt, the “crude HPLC purity” value was determined as 90%.

With H-LCYKAA-SEt, the “crude HPLC purity” value came to 70%.
